Measured values: PMC7819943, “Rice protein-binding microarrays: a tool to detect cis-acting elements near promoter regions in rice”
The list shows a part of the results.

Sequences of proteins named here, by UniProt entry; tags and fusion partners are left off.
UniProt Q0JBA9, entry or part of it: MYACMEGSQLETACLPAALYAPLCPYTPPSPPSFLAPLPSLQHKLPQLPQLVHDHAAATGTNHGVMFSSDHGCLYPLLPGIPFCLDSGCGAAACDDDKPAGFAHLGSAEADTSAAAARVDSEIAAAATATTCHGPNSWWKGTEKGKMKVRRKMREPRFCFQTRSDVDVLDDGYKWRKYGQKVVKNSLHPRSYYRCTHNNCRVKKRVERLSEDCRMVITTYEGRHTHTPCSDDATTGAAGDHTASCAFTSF

Molecular target: OsWRKY34 (Oryza sativa, UniProt Q0JBA9 1-250)
Experiment: protein-binding microarray (RPBM); PBS, 2% BSA, 51.3 ng/ul salmon testes DNA, 50 uM zinc acetate, 200 nM TF, 25 C, 1 h; high values mean tight binding
Conditions: protein: recombinant; tags: N-terminal polyhistidine and DsRed monomer fusion (pET32a); label: CyDye5-dUTP incorporated in the synthesized complementary strand; 3' TTTTT single-stranded linker to array surface; dsDNA, one strand shown
In short: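 Binding signal is defined as the fluorescence intensity of each feature in arbitrary units, read on an Axon 4000B scanner. Transcription factors with N-terminal polyhistidine and DsRed fusions came from E. coli BL21-CodonPlus and were purified on Ni–NTA. They were incubated at 200 nM for 1 h at 25 °C on a custom Agilent array that had been made double-stranded with Cy5-dUTP, with 50 µM zinc acetate present, and the array was washed.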

Row | Sequence | binding signal
1 | TCCCGCTTCTCCTCCGTCGCTCTCCGCCGCCGCCGCCACCCGGAGTCACCTAGTGCAG | 10200 fluorescence intensity (a.u.)
2 | AACACCACGGCACAGACAACATTCTTCATGTTTACAACAACGGAGTCACCTAGTGCAG | 8910 fluorescence intensity (a.u.)
3 | GCGTCAGTAACAAATCACCGCTCCGTATCTAACCATTCATCGGAGTCACCTAGTGCAG | 9080 fluorescence intensity (a.u.)
4 | TCGTATACACCCTCACCTATAGTGCACATACAAAATAATTCGGAGTCACCTAGTGCAG | 8190 fluorescence intensity (a.u.)
5 | AGCACGAGGTATTAATTTCATGCTACAGTCAAAATATTTTCGGAGTCACCTAGTGCAG | 8700 fluorescence intensity (a.u.)
6 | AGTACAGCTAGCCGCGGGTCCCTATCCATGCCATCGTAAACGGAGTCACCTAGTGCAG | 8870 fluorescence intensity (a.u.)
7 | AAAAACCCTATTAGGGTTGGGTTTGTTCTCCATTTTATACCGGAGTCACCTAGTGCAG | 10300 fluorescence intensity (a.u.)
8 | CATATCACATCAATTGTTTTTAGCCTTTAGATGATTAATCCGGAGTCACCTAGTGCAG | 8120 fluorescence intensity (a.u.)
9 | TTTTGTTGACATTTTCTTTCTTTCCTTGGCATAAGCCAGTCGGAGTCACCTAGTGCAG | 10200 fluorescence intensity (a.u.)
10 | GTCGCTGTCATTTGGTTGTTTCATTTGTAATATTAGTTGTCGGAGTCACCTAGTGCAG | 11400 fluorescence intensity (a.u.)
11 | GCAAAATAGGTTCTATATTTCACTGTAAATATGTTTTCCACGGAGTCACCTAGTGCAG | 8420 fluorescence intensity (a.u.)
12 | TCTCGCACTGGTTAGTTGCTTCCTTGATGTGCTGTGTCCTCGGAGTCACCTAGTGCAG | 9830 fluorescence intensity (a.u.)
13 | GGCCCATGCGACGCCACGCCAGGTCCCGCTCATCTCTTCACGGAGTCACCTAGTGCAG | 9140 fluorescence intensity (a.u.)
14 | CCAATGTTTTCTTCTCGTTCCTACCTGCGTCGACGTGTGACGGAGTCACCTAGTGCAG | 8940 fluorescence intensity (a.u.)
15 | CATCAAAATATTTTTTTCTTGGGCCTTTTTCATCAAAATACGGAGTCACCTAGTGCAG | 9010 fluorescence intensity (a.u.)
16 | CCTCCGCCGCGCGCCCCGACCGCTCCGCCGCCTTCGCCGCCGGAGTCACCTAGTGCAG | 10400 fluorescence intensity (a.u.)
17 | ACCATGCATTTGTGTTGCCTCTGTCCCTAATGTAAGCATCCGGAGTCACCTAGTGCAG | 9290 ± 407 fluorescence intensity (a.u.)
18 | TGTCCGCTCAATTGCTTTCCTTTCATTTCGTGCGCGCGAGCGGAGTCACCTAGTGCAG | 11200 fluorescence intensity (a.u.)
19 | ACTAGCTTCATTGTGGGGTTTTAGAGTTCCCTGGTAGGCACGGAGTCACCTAGTGCAG | 8180 fluorescence intensity (a.u.)
20 | GGATTTCTGCTTCTGTTCGATCTCCGCTGCGAAGACGCAACGGAGTCACCTAGTGCAG | 8440 fluorescence intensity (a.u.)
21 | ATTTTCTGTGAGCAATCTATTTATAATTTTTAAGTGCAACCGGAGTCACCTAGTGCAG | 8180 fluorescence intensity (a.u.)

Row | Sequence | binding signal
22 | CTTTGGTAGCTCCGTCGTCTCATTTACTGCTACAGCGATACGGAGTCACCTAGTGCAG | 8340 fluorescence intensity (a.u.)
23 | TGGGTTTTATTTTCCCATTCTTTCGAGCTATTTTGACGGACGGAGTCACCTAGTGCAG | 8220 fluorescence intensity (a.u.)
24 | GTATCGCCAAGGAGGAGAGGGGAGAGGGGTGGAAGAGGAACGGAGTCACCTAGTGCAG | 11900 fluorescence intensity (a.u.)
25 | TTTTTGTACAAGCTGGTATTATTTTCATTGGGTTGCTAGGCGGAGTCACCTAGTGCAG | 8480 fluorescence intensity (a.u.)
26 | TTTGCCAAGTATAAGAAGGTCTTGCCACATGCAGGTTCTCCGGAGTCACCTAGTGCAG | 9350 fluorescence intensity (a.u.)
27 | TGCCGTTTCTTTGGTCTCATCCTCCGCTAGCAGCAAAGCCCGGAGTCACCTAGTGCAG | 8160 fluorescence intensity (a.u.)
28 | GATGTGGCATCTCAACTGGGCTACAGTAGCATCGACTCAGCGGAGTCACCTAGTGCAG | 8290 fluorescence intensity (a.u.)
29 | GCTGTTAATTGTATACCCCACTTGGCCGCTATCTTTGACACGGAGTCACCTAGTGCAG | 10200 fluorescence intensity (a.u.)
30 | ATGTCCAATATCTCTTGTCCTCTATCTGGCTTCTGACATCCGGAGTCACCTAGTGCAG | 10800 fluorescence intensity (a.u.)
31 | TCTTCTTCTCTGTGTATCCCTTGTTCTTTTGATATTTTGACGGAGTCACCTAGTGCAG | 12500 fluorescence intensity (a.u.)
32 | CTCTGGTCACGATACTCCCGGTCCCATATCACCGACACCGCGGAGTCACCTAGTGCAG | 8110 fluorescence intensity (a.u.)
33 | CCGATCTCTCTCACTCTCCACCCACACCTCCACTCCACTCCGGAGTCACCTAGTGCAG | 8870 fluorescence intensity (a.u.)
34 | CGAGTACTCAGCCTTTTTACATGCATGCGATTTTTTTTCTCGGAGTCACCTAGTGCAG | 8620 fluorescence intensity (a.u.)
35 | CACACTCCCATCCATTCTCCTCTCCTTTCCTCTCCTCTCCCGGAGTCACCTAGTGCAG | 8050 fluorescence intensity (a.u.)
36 | GACTTTTTAAGTATATGTTTGACCGTTCGTCTTATTCAAACGGAGTCACCTAGTGCAG | 9530 fluorescence intensity (a.u.)
37 | TCCTACGTGGATAAACTTGTTTTTTTGCTTTTGTGCGACGCGGAGTCACCTAGTGCAG | 9490 fluorescence intensity (a.u.)
38 | TGGATCTCGCCGCCGCCTTCCACCAACCCTCGCCGGACAACGGAGTCACCTAGTGCAG | 8730 fluorescence intensity (a.u.)
39 | TTAGCCTCGTACGTTGTCTCGGGCAATTTGTTTCCCTCCGCGGAGTCACCTAGTGCAG | 8530 fluorescence intensity (a.u.)
40 | TCTTGTCGTCCTCACCGCCATCTGTGCGCCCATACAACTACGGAGTCACCTAGTGCAG | 10600 fluorescence intensity (a.u.)
41 | ACAACACGGCAAATTCTCAATACATATTATAGCATACTCTCGGAGTCACCTAGTGCAG | 9110 fluorescence intensity (a.u.)
42 | ATTTCATTTTTTTCCCTCTATTCTTAGTTCTTCTCTGTTCCGGAGTCACCTAGTGCAG | 8360 fluorescence intensity (a.u.)

Two records picked at random from the list so far:
Row | Sequence | binding signal
38 | TGGATCTCGCCGCCGCCTTCCACCAACCCTCGCCGGACAACGGAGTCACCTAGTGCAG | 8730 fluorescence intensity (a.u.)
9 | TTTTGTTGACATTTTCTTTCTTTCCTTGGCATAAGCCAGTCGGAGTCACCTAGTGCAG | 10200 fluorescence intensity (a.u.)
